At least one compound was matched to its structure with a doubt left.
System: BCL2 expression in triple hit lymphoma line WSU-DLCL2
Assay: qPCR gene expression after compound treatment
Assay type: cell-based
Description: Cell Culture: Cell culture medium: RPMI 1640 medium (#2198761, Thermo Fisher) supplemented with 10% fetal calf serum (#S00AZ, BioWest) and 1% pen/strep (#15140-122, Thermo Fisher). At day-1, 900 μl cell suspension was seeded in 24-well plates (#662165, Greiner Bio-One) at a density of 128,000 cells/well. At day 0, 100 μl compound was added in three different concentrations to reach a final concentration of 0.316×IC50, 1×IC50, and 3.16×IC50 (unless indicated otherwise). To the control samples, 100 μl 20 mM HEPES+3.16% DMSO was added instead of compound. When the compound is prepared in HEPES instead of DMSO, 20 mM HEPES without DMSO was added to the cells. […]
Determining the RNA concentration: RNA concentrations were determined with the RiboGreen (#R11490, Thermo Fisher) kit according to manufacturer's instructions.
cDNA synthesis: RNA was reverse transcribed into cDNA using the Quantitect Reverse Transcript Kit (#205313, Qiagen) according to manufacturer's instructions. […]
qPCR Data Analysis: Cq and Tm raw data values are determined by the BioRad CFX manager software from the PCR machine. […] The Cq difference between sample and the control (DDCq) was calculated by subtracting DCq control from DCq sample. The fold difference in expression between the control (no compound) and the compound treated sample is than calculated according the 2^-DDCq method.

C=CC(=O)N1CCC[C@@H](n2nc(-c3ccc(Oc4ccccc4)cc3)c3c(N)ncnc32)C1 [ibrutinib]
change of BCL2 expression: significantly increase

CO[C@H]1C[C@@H]2CC[C@@H](C)[C@@](O)(O2)C(=O)C(=O)N2CCCC[C@H]2C(=O)O[C@H]([C@H](C)C[C@@H]2CC[C@@H](O)[C@H](OC)C2)CC(=O)[C@H](C)/C=C(\C)[C@@H](O)[C@@H](OC)C(=O)[C@H](C)C[C@H](C)/C=C/C=C/C=C/1C [rapamycin]
change of BCL2 expression: significantly increase

— patent US20260007728A1, “COMBINATION THERAPIES INVOLVING L-ASPARAGINASE” (Jazz Pharmaceuticals Ireland Ltd., priority 2022, published 2026)
